Experimental findings from PMC4159567 are described below.

No constants are given. Whether binding was seen depends on the method and setting. Some results given as binding are weak or reduced against the parent protein; the word gives no strength. Sequences can lack the tags named with a protein.

The target in one test is ATG-(GA)50-HA (human). The test can be described thus: Western blot of high molecular weight species; total lysates (Co-IP buffer plus 2 % SDS) of transfected HEK293T cells (48 h); samples heated in Laemmli's buffer. (A western blot detects proteins with antibodies after separation by electrophoresis.)
The target in another test is ATG-(GA)50-V5 (human). The description is as above.
Another test has as its target ATG-(GA)100-V5 (human). The description is as above.
The target of a further test is GFP-(GA)50 (human). In words: Western blot of high molecular weight species; Triton X-100 soluble and insoluble fractions of transfected HEK293T cells (48 h); samples heated in Laemmli's buffer.
Test [1] addresses GFP-(GA)50 (AAV1, primary neurons) (human). The test can be described thus: Western blot of high molecular weight species; lysates (Co-IP buffer with 2 % SDS) of primary mouse cortical neurons, seven days after AAV1 transduction.

B1: ATG-(GA)50-HA (protein)
chain: MGAGAGAGAGAGAGAGAGAGAGAGAGAGAGAGAGAGAGAGAGAGAGAGAGAGAGAGAGAGAGAGAGAGAGAGAGAGAGAGAGAGAGAGAGAGAGAGAGAGA
Regarding B1, the binding entry in the test with ATG-(GA)50-HA (human) is given as “binds”.

B2: ATG-(GA)50-V5 (protein)
chain: MGAGAGAGAGAGAGAGAGAGAGAGAGAGAGAGAGAGAGAGAGAGAGAGAGAGAGAGAGAGAGAGAGAGAGAGAGAGAGAGAGAGAGAGAGAGAGAGAGAGA
For B2, in the test with ATG-(GA)50-V5 (human), the binding entry was “binds”.

B3: ATG-(GA)100-V5 (protein)
chain: MGAGAGAGAGAGAGAGAGAGAGAGAGAGAGAGAGAGAGAGAGAGAGAGAGAGAGAGAGAGAGAGAGAGAGAGAGAGAGAGAGAGAGAGAGAGAGAGAGAGAGAGAGAGAGAGAGAGAGAGAGAGAGAGAGAGAGAGAGAGAGAGAGAGAGAGAGAGAGAGAGAGAGAGAGAGAGAGAGAGAGAGAGAGAGAGAGAGAGAGA
In the case of B3, the binding entry in the test with ATG-(GA)100-V5 (human) is “binds”.

B4: GFP-(GA)50 (protein)
chain: GAGAGAGAGAGAGAGAGAGAGAGAGAGAGAGAGAGAGAGAGAGAGAGAGAGAGAGAGAGAGAGAGAGAGAGAGAGAGAGAGAGAGAGAGAGAGAGAGAGA
Take B4: the binding entry with GFP-(GA)50 (human) was “binds”.

B5: GFP-(GA)50 (AAV1, primary neurons) (protein)
chain: GAGAGAGAGAGAGAGAGAGAGAGAGAGAGAGAGAGAGAGAGAGAGAGAGAGAGAGAGAGAGAGAGAGAGAGAGAGAGAGAGAGAGAGAGAGAGAGAGAGA
In the case of B5, the binding result in test [1] is given as “binds”.
